Reference: publication PMC3749136
Results are given in words; binding and its absence hold for the method and conditions named. Binding can be weak; no strength is given.

By UniProt entry, the sequences of proteins in these tests, tags left out. Where a name states a change or a piece, a line headed by the entry shows the natural chain unless it says otherwise.
UniProt P52333: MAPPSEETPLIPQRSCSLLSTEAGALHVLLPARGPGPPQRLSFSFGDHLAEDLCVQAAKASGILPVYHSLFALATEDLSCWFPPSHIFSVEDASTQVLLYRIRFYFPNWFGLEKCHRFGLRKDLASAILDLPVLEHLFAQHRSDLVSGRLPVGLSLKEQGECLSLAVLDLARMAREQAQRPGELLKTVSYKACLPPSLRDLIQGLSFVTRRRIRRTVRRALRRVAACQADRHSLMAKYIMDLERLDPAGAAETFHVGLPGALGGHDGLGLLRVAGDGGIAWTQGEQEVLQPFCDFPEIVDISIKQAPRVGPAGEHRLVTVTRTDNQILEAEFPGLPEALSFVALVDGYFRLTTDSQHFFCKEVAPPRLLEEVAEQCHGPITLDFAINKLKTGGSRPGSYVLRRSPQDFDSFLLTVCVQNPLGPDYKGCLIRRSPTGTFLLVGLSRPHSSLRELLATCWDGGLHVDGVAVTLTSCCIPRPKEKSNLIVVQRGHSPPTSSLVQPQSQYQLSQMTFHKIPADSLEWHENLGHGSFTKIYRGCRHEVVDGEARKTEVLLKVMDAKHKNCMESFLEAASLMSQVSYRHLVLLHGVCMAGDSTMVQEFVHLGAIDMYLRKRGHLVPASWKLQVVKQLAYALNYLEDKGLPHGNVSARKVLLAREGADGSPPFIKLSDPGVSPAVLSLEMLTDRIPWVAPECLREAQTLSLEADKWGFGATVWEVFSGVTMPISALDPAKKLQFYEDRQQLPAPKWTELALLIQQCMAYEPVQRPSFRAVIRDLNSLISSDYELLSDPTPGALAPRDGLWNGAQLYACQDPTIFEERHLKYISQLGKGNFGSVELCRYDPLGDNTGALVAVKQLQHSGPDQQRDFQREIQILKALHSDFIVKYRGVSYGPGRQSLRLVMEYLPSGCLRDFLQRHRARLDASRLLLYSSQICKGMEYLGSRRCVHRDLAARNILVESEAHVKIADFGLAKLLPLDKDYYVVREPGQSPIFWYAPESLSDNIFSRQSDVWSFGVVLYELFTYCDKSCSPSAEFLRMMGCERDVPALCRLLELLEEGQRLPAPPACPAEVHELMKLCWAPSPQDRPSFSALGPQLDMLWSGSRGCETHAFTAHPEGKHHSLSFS
UniProt P29597: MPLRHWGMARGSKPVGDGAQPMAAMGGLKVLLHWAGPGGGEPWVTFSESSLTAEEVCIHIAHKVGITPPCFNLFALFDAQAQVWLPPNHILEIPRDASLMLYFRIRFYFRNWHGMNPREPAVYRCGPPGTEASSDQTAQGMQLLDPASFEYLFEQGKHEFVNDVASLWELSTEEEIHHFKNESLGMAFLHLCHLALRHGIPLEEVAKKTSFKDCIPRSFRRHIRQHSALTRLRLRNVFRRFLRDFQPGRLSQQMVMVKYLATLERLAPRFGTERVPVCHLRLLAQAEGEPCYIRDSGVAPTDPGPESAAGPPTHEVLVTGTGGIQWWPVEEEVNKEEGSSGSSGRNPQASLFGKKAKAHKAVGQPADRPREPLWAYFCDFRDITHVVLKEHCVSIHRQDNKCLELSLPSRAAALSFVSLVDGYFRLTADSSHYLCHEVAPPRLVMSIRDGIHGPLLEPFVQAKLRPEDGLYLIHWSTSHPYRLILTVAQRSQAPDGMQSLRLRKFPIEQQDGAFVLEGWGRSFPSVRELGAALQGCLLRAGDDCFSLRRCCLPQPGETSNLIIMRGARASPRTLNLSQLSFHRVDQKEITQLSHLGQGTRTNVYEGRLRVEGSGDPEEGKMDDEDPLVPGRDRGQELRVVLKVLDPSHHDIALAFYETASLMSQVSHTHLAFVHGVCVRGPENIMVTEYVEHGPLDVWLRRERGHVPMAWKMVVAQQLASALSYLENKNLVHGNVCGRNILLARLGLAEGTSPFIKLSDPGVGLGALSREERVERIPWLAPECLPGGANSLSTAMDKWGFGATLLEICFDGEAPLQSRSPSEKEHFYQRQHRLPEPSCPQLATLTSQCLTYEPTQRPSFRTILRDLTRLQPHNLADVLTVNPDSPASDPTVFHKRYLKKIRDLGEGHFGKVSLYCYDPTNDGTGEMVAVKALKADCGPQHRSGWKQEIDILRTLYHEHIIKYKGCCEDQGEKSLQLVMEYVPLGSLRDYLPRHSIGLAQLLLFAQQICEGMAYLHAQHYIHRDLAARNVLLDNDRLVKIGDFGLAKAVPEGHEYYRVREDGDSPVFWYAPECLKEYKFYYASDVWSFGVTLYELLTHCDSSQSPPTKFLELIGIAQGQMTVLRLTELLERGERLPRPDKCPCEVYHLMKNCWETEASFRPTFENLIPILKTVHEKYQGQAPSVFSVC

Molecular target: T1, SOCS5 175–244 fragment (mouse) (UniProt O54928)
T1 sequence: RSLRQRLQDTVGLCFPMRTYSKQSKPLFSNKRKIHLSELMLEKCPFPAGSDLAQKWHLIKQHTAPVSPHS
Assay: SPR; SOCS5 175-244 immobilised by amine coupling on a CM5 chip; JAK JH1 domains (62.5 nM to 2 µM) injected; 10 mM HEPES pH 8.0, 200 mM NaCl, 3.0 mM EDTA, 0.05% Tween20; steady-state fit, apparent KD; BIAcore3000; both purified

| binding | Substance |
| --- | --- |
| binds | JAK3 JH1 domain (from UniProt P52333) (domain or fragment) |
| binds | TYK2 JH1 domain (from UniProt P29597) (domain or fragment) |
